Over roughly 33,000 sequences, “E-score (-0.5 to 0.5)” has its median near -0.0014; the highest 2% begin near 0.25. This is one part of the list.
Target: T1, Cad1 (UniProt P24813)
T1 sequence: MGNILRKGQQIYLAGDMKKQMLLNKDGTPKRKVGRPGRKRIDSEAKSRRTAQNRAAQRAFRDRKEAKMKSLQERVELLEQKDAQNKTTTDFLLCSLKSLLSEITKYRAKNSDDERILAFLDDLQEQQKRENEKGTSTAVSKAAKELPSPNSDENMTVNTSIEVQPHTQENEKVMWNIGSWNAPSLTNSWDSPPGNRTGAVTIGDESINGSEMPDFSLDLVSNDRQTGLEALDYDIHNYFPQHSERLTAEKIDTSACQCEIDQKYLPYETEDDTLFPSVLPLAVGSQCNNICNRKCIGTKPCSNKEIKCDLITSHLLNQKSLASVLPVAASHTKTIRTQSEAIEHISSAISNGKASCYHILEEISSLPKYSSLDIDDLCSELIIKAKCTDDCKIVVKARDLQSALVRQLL
Assay: PBM E-score (8-mer binding enrichment) (E-score (-0.5 to 0.5)); higher = stronger / more preferred TF binding
Conditions: protein concentration: 100 nM; construct: GST-full length
Description: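 Universal 'all 10-mer' protein binding microarrays (Agilent AMADID 015681) probed with GST-tagged S. cerevisiae TFs (full-length or DBD) made by in vitro transcription/translation (PURExpress), about 100-200 nM. Bound TF was detected with fluorescent anti-GST. Each ungapped 8-mer (which stands for itself and its reverse complement) is scored by the PBM enrichment score (E-score), a modified Wilcoxon-Mann-Whitney statistic from -0.5 to +0.5, computed with the Universal PBM Analysis Suite. Scale: above 0.35 generally sequence-specific binding.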

| Sequence | PBM E-score |
| --- | --- |
| CACAATTC | 0.108 |
| AGCGAGTC | -0.121 |
| AGTGCAAG | 0.2 |
| AACCGAGC | 0.075 |
| ATGGCCTC | -0.0388 |
| GCCCACGA | -0.0771 |
| CTGGCAAA | 0.106 |
| ATCTTCGA | 0.111 |
| AATACCCG | -0.0354 |
| ACTATGTA | -0.0426 |
| ATGACTTG | -0.0608 |
| ACTCCAAT | 0.0079 |
| GCGTGAAA | 0.141 |
| CTGAACTC | -0.133 |
| TCCTCCAA | -0.187 |
| ATGACTGC | -0.0169 |
| GAGTGTGC | 0.0246 |
| GTGCGATA | -0.0795 |
| CTTCATCA | 0.198 |
| CGATAGGC | -0.0634 |
| ATCAGGGC | -0.0821 |
| GCGTGCGA | 0.0461 |
| GGAGGAAA | -0.0105 |
| GTGCTGCA | 0.0818 |
| CGTGAAAA | 0.202 |

| Sequence | PBM E-score |
| --- | --- |
| CCCGGAGA | 0.0241 |
| GCTGACGA | 0.243 |
| AGGTATCC | -0.0007 |
| ACATACAC | 0.0267 |
| CAAGAATG | -0.131 |
| GATAACAC | 0.089 |
| CAGAACTC | 0.0173 |
| AATGATGG | 0.0938 |
| AATTCCCG | 0.104 |
| AGGGACTA | -0.132 |
| ATGGTGAC | -0.161 |
| GTAGTAAC | -0.0198 |
| CCCTATAG | -0.143 |
| AACGCCGC | -0.00077 |
| CTTACAAC | 0.118 |
| CTGAGCAG | 0.0755 |
| CGTTTACC | 0.124 |
| GATCCAAC | -0.109 |
| GCCGTCAC | -0.0462 |
| AGAATATG | 0.129 |
| CTATTCTA | 0.122 |
| CAGTAGAA | -0.0744 |
| AACTTCCT | 0.0129 |
| CGGGTGAC | -0.0446 |
| GCGACGCC | -0.0999 |

| Sequence | PBM E-score |
| --- | --- |
| ACTGGGGG | -0.357 |
| AATTGCGG | -0.00661 |
| ATAAAGCC | -0.0352 |
| GTTCGAGA | 0.102 |
| CACAAGGA | -0.0533 |
| ACAGCATG | -0.053 |
| AATAGCCT | -0.18 |
| CCAGTGTA | -0.019 |
| GCTTTAGA | -0.143 |
| AGGATATA | 0.136 |
| GTCGGACA | 0.0907 |
| TGGAGACA | 0.047 |
| CCATCTGA | -0.00898 |
| CAAGCAAA | 0.0203 |
| TAAGCTTA | 0.378 |
| TTCAAAAA | -0.0855 |
| CACACATC | -0.164 |
| ACTGCATG | 0.0724 |
| TCAGTTAA | -0.0647 |
| ACAGCACT | 0.173 |
| TATACATA | 0.0239 |
| CGAAGCAC | -0.0455 |
| ACCTCGCC | -0.0962 |
| AAAACTGG | 0.015 |
| CAATGTTA | 0.0664 |

Pulled one by one from above:

| Sequence | PBM E-score |
| --- | --- |
| CACAAGGA | -0.0533 |
| CACACATC | -0.164 |

(next part)

| Sequence | PBM E-score |
| --- | --- |
| CGGGACAC | -0.0454 |
| CACACAAG | 0.013 |
| CGTCGTTA | 0.0352 |
| AACTAATT | 0.217 |
| GCTTTCTA | 0.241 |
| GGCTGTTA | 0.0352 |
| GTAGAACA | -0.179 |
| GGCGACCA | -0.169 |
| CGTGTTGC | 0.0661 |
| CGATCGCG | 0.122 |
| ACGGACAA | 0.244 |
| AGCAAACT | 0.125 |
| AGTAACTG | 0.0501 |
| AAAATAGC | -0.0928 |
| CAGCCTCA | -0.0913 |
| ACTTTTTC | 0.0204 |
| CCACGTCC | -0.193 |
| ACGACTTC | -0.0241 |
| GGCGTACA | -0.00166 |
| ATATTCAC | 0.129 |
| CTGGGCAA | -0.00151 |
| ACTGGTAG | -0.146 |
| CAATTTAA | 0.156 |
| CACTTATC | 0.128 |
| AAGACGCG | -0.0357 |

| Sequence | PBM E-score |
| --- | --- |
| ACATCCGA | 0.058 |
| TAATGACA | 0.139 |
| ACACAATG | 0.0841 |
| CAAGGGGC | -0.148 |
| GAGGCACC | -0.33 |
| ACCTGTTG | -0.0789 |
| CCGCTACG | -0.165 |
| CGGTTCTC | -0.0464 |
| CGCAGACC | -0.146 |
| ATCTTCTG | -0.113 |
| CCCGACGC | -0.068 |
| AGATAGCC | -0.226 |
| CCGATAGC | 0.0126 |
| AGGAGTAT | -0.124 |
| AGTAACGG | 0.033 |
| GGGATCAC | -0.211 |
| CGGCCCTC | -0.241 |
| AACATGGA | 0.0132 |
| GATGTGCC | -0.146 |
| GGGATAGA | -0.267 |
| GACCTGGC | -0.154 |
| CAGAATTC | 0.121 |
| AACCCACA | 0.137 |
| CCCGATCA | -0.165 |
| CACAGTGG | -0.0816 |

Looked up above:
Entry for CCCGACGC under PBM E-score: -0.068
Entry for AACATGGA under PBM E-score: 0.0132
Entry for CGGTTCTC under PBM E-score: -0.0464
Entry for AGGAGTAT under PBM E-score: -0.124

Some of the entries so far, field by field.
AGTGCAAG
  PBM E-score: 0.2
CGATCGCG
  PBM E-score: 0.122

Continued.

| Sequence | PBM E-score |
| --- | --- |
| GGACCGAC | -0.0271 |
| AAGAAGAC | -0.114 |
| GCACTCGC | 0.00899 |
| GCAGCGGA | -0.0753 |
| AAGTGACA | 0.161 |
| CACCGCAA | 0.23 |
| GCTCCTCC | -0.241 |
| AGACAAAA | 0.0349 |
| ATGCTGGA | 0.0416 |
| GAGCTTCC | 0.123 |
| GGTGTTAC | -0.0578 |
| AACACGAC | 0.102 |
| AATCTCAA | 0.0961 |
| CCACCTCA | -0.0922 |
| ACTTAGCA | 0.0611 |
| CACAGGAA | -0.168 |
| ACAATCGG | 0.195 |
| GCATTGAC | -0.0478 |
| CCTCCGCA | -0.125 |
| GGGTGTGA | -0.212 |
| CATCCATA | 0.0846 |
| GCTAGCAC | 0.025 |
| TACCCATA | -0.121 |
| CCAGTGGG | -0.318 |
| GGTACTTA | -0.0473 |

| Sequence | PBM E-score |
| --- | --- |
| ACCTTTGC | -0.0613 |
| ATAGAGTC | -0.148 |
| CCGTAGCA | -0.0883 |
| CATTGACG | 0.0193 |
| GAACGAAA | -0.0129 |
| AGGTTAAC | -0.00764 |
| CCGTCCGA | -0.0947 |
| ACACGTCC | 0.0288 |
| AGAGTATG | -0.0542 |
| CCAATTTC | 0.105 |
| CGATACAG | 0.0253 |
| AAGATCGC | 0.0452 |
| CCGGGAAG | -0.0638 |
| AAATCGCT | 0.00908 |
| CAGTAGCC | -0.252 |
| CCGCCGAG | 0.0731 |
| ATCTTACG | -0.0441 |
| AAGTTTGG | 0.124 |
| AATAGAGG | -0.154 |
| ATTAACGA | 0.178 |
| CGACAACG | 0.169 |
| AACTGCGG | 0.0204 |

— the supplement of paper PMC3334620
